These results are taken from PubChem BioAssay AID2685 (National Center for Advancing Translational Sciences (NCATS), 2010).

The list shows a part of the results. The main result of the screen is listed elsewhere. These columns were measured beside it and carry no call. Most of these compounds were active or inconclusive in the main read-out, so they are no random draw. Words in brackets tell the shape of the fitted curve; partial curves, single points and poor fits give uncertain potencies.

The nature of the test: qHTS Assay for Lipid Storage Modulators in Drosophila S3 Cells.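 On cell number change: cells counted by Cell Tracker Red CMTPX staining in the red channel.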 Conditions: BODIPY lipid droplet fluorescence, 18-24 h; for cell number change: measured here: cell count max response, cells fed with added oleic acid. An outline of the steps: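 Laser-scanning cytometry quantifies lipid droplet accumulation (500–530 nm total intensity; droplet/cell object ratio) in oleic acid-fed (400 uM added) Drosophila S3 cells treated with a concentration series. 20 uM Triacsin C defined 100% inhibition.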
(In general: qHTS replaces the single test concentration by a dilution series.)

Setting [1] is: measured here: cell number channel AC50, cells fed with added oleic acid.
[2] abbreviates: measured here: lipid fluorescence (Fed channel) AC50, cells fed with added oleic acid.

Regarding `COc1ccc(N2C(=O)C3C(C2=O)C(C(=O)c2ccccc2)N2CCCC32)cc1` (stereo not given), the cell number change was 5.66%.
As a reminder, the AC50 is the midpoint of the concentration-response curve, whichever way the signal moves. Low readings indicate greater potency, high ones weaker potency. Consider `N#Cc1ccc(-c2ccc(OCC3CNC(=O)O3)cc2)cc1` (stereo not given), for which the cell number change is -45.3%. For the same molecule, the AC50 under setting [1] was 29.1 µM [falling, single point].
Regarding `NS(=O)(=O)c1ccc(Oc2ccc(S(N)(=O)=O)cc2)cc1`, the cell number change was 21.3%.
With `O=C(NCc1ccco1)/C(=C/c1ccc(Br)cc1)NC(=O)c1ccco1`, the cell number change was -11%.
Turning to `COc1ccc(C(=O)CSc2cc(C)[nH]c(=O)n2)cc1`, the cell number change was -6.1%. Also, the concentration at half-maximal activity (AC50) under setting [2] is 29.1 µM [rising, single point].
For `Nc1ccccc1NC(=O)c1ccccc1`, the cell number change was -0.556%. Moreover, under setting [2], the AC50 was 1.64 µM [falling, partial curve].
For the molecule `COc1ccc(CNC(=O)C2CC(C)=C(C)CC2C(=O)O)cc1OC` (stereo not given), the cell number change is 2.75%. Further, the AC50 under setting [2] is 29.1 µM [rising, single point].
Turning to `COC(=O)c1sccc1-c1ccc(C(=O)Nc2ccccc2)o1`, the cell number change was determined as 6.32%. Besides, under setting [2], the AC50 is 16.4 µM [falling, single point].
Turning to `Cc1ccc2nc(Cn3cc(C(F)(F)F)cc(Cl)c3=O)cc(=O)n2c1`, the cell number change is 28.2%. Also, the AC50 under setting [2] is 29.1 µM [rising, single point].
As to `COc1ccc(S(=O)(=O)N2CCC(C(=O)NCc3cccnc3)CC2)cc1C`, the cell number change came to 22.4%. Moreover, under setting [1], the AC50 was 0.82 µM [rising, full curve, poor fit]. Moreover, the half-maximal activity concentration (AC50) under setting [2] was 35.5 µM [falling, single point].
As for `COc1cccc(CNCCN2CCOCC2)c1OC`, the cell number change was found to be 0.879%.
For the molecule `COc1ccc(OC)c(C2CC(c3ccc(NS(C)(=O)=O)cc3)=NN2C(=O)c2ccccc2)c1` (stereo not given), the cell number change was 34.8%. Besides, the half-maximal activity concentration (AC50) under setting [1] was 16.4 µM [rising, partial curve].
On to `COc1ccc(NC(=O)CN(C)CC(=O)Nc2ccc(C)c(S(=O)(=O)N3CCCCC3)c2)cc1`, for which the cell number change stood at 7.37%. In addition, the AC50 under setting [1] is 6.51 µM [falling, single point]. For the same molecule, the AC50 under setting [2] is 0.00461 µM [falling, full curve, poor fit].
With `Cc1cccc(CSc2ncccc2C(=O)O)c1`, the cell number change came out at 5.23%. The concentration at half-maximal activity (AC50) under setting [2] is 20.6 µM [rising, single point].
Turning to `O=C(Nc1ccc(N2CCN(C(=O)c3cccs3)CC2)cc1)c1ccc(F)cc1`, the cell number change is -0.427%.
Regarding `Cc1ccc(NC(=O)C2CCCN(S(=O)(=O)c3c(C)noc3/C=C/N(C)C)C2)cc1F` (stereo not given), the cell number change stood at 36%. The AC50 under setting [1] was 0.092 µM [rising, full curve, poor fit]. Further, the concentration at half-maximal activity (AC50) under setting [2] is 9.2 µM [rising, single point].
`CCOC(=O)c1c(N)sc(C(O)(C(F)(F)F)C(F)(F)F)c1-c1ccccc1`: the cell number change was -185%. Moreover, the half-maximal activity concentration (AC50) under setting [1] is 20.6 µM [falling, single point].
In the case of `CCOc1ccc(-n2nc3c(=S)[nH]nc(C)c3c2C)cc1`, the cell number change was -10.8%. Moreover, the AC50 under setting [2] is 14.6 µM [rising, partial curve].
Turning to `CCCCOc1ccc(NC(=O)C(=O)NCCCn2ccnc2)cc1`, the cell number change came out at 7.87%.
The same measure, in the same setting: with `Cn1c(SCc2ccccc2)nc2ccsc2c1=O` the figure was 19.1%; with `CCOC(=O)N1CCN(C(=O)CSC2=NS(=O)(=O)c3ccccc3N2)CC1`, -11.1%.
On the same count and under the same terms, to `CN1CCN(/C=N/c2c(C#N)cnn2-c2ccccc2)CC1` belongs 10.3%.
For `COc1ccc(C(=O)/C=C/Nc2ccc([N+](=O)[O-])cc2)cc1`, the cell number change stood at 2.97%. Under setting [2], the AC50 is 6.51 µM [falling, single point].
As for `CCOC(=O)c1c(NC(=O)CN2C(=O)NC3(CCC(C)CC3)C2=O)sc(C)c1-c1ccc(C)cc1` (stereo not given), the cell number change came to 37.4%. The AC50 under setting [1] is 20.6 µM [rising, single point].
Consider `O=[N+]([O-])c1ccccc1S(=O)(=O)Nc1cccc2cccnc12`, for which the cell number change is -67.9%. The AC50 under setting [1] is 17.8 µM [falling, single point]. Also, the AC50 under setting [2] is 8.91 µM [falling, partial curve].
For `COC(=O)C1CCN(C(=O)C(C)Oc2ccc(Cl)cc2Cl)CC1` (stereo not given), the AC50 is 6.51 µM [falling, single point] under setting [1] and 6.51 µM [falling, single point] under setting [2].
For the molecule `CCOc1ccc(N(Cc2ccc(OC)cc2)C(=O)c2ccco2)cc1`, the concentration at half-maximal activity (AC50) under setting [1] was 2.59 µM [rising, single point].
Regarding `CC1=NN(c2ccc(Cl)cc2)C(=O)C1`, the cell number change was -21.2%. Further, the AC50 under setting [2] was 16.4 µM [falling, single point].
For `COc1ccc(/C=N/n2c(N)c(S(=O)(=O)c3cccs3)c3nc4ccccc4nc32)cc1OC`, the concentration at half-maximal activity (AC50) under setting [1] was 1.3 µM [rising, partial curve] and the AC50 under setting [2] is 1.03 µM [rising, full curve].
For the molecule `CCOc1ccc(-c2[nH]nc3c2C(c2ccc4c(c2)OCO4)C(C#N)=C(N)O3)cc1OC` (stereo not given), the cell number change was -15.2%.
Turning to `O=S(=O)(c1ccccc1)N1N=C(c2cccs2)CC1c1ccc(F)cc1` (stereo not given), the cell number change was found to be 20.1%.
Turning to `Cc1ccccc1CSCC(=O)Nc1ccccc1F`, the cell number change turned out to be 2.92%. In addition, under setting [2], the AC50 is 3.26 µM [rising, single point].
Regarding `O=C(O)CC1(CC(=O)Nc2cccc(C(F)(F)F)c2)CCCC1`, the cell number change turned out to be 15.6%. Moreover, the concentration at half-maximal activity (AC50) under setting [2] was 29.1 µM [rising, single point].
Take `O=C(Nc1nccs1)C1CC(=O)N(CCc2ccccc2)C1` (stereo not given): the cell number change is 5.62%.
Consider `O=C(N/N=C/C1CCCCC1)c1ccccc1-n1cccc1`, for which the half-maximal activity concentration (AC50) runs as follows: under setting [1], 3.26 µM [rising, single point]; under setting [2], 3.26 µM [rising, partial curve].
Turning to `Cc1ccc(NS(=O)(=O)c2cccc3cccnc23)cc1Cl`, the cell number change was -16.3%. Besides, under setting [2], the concentration at half-maximal activity (AC50) is 29.1 µM [falling, single point].
As to `Cc1ccc(NC(=O)COC(=O)c2ccc3c(c2)OCO3)cc1S(=O)(=O)N1CCCCC1`, the concentration at half-maximal activity (AC50) was 1.3 µM [falling, full curve] under setting [1] and 6.51 µM [rising, single point] under setting [2].
Turning to `NC(=S)N/N=C/c1c[nH]c2ccccc12`, the cell number change amounted to 10.7%. The half-maximal activity concentration (AC50) under setting [2] was 4.11 µM [rising, full curve].
As to `CCCCNC(=O)c1cccc(S(=O)(=O)N2CC3(C)CC2CC(C)(C)C3)c1` (stereo not given), the cell number change was -13.6%. Under setting [2], the concentration at half-maximal activity (AC50) is 13 µM [falling, partial curve, poor fit].
`CC1CCN(C2CC(=O)N(c3ccccc3)C2=O)CC1` (stereo not given): the cell number change turned out to be 1.62%. Further, under setting [2], the AC50 was 6.51 µM [falling, single point].
`CC(C)n1c(SCC(=O)c2ccc3c(c2)OCCO3)nc2c1c(=O)n(C)c(=O)n2C`: the cell number change turned out to be 32.2%. Besides, the AC50 under setting [1] is 2.06 µM [rising, full curve].
As to `CC(=O)c1cccc(NC(=O)CN2C(=O)C(=O)N(Cc3ccco3)C2=O)c1`, the cell number change was 3.18%. Under setting [2], the concentration at half-maximal activity (AC50) is 4.11 µM [rising, full curve].
